Data from US20210188980A1.
These are yes or no findings as the source states them, for the method shown. Some results given as binding are weak or reduced against the parent protein; the word gives no strength.

What was measured:
[1] = biological target: T1, biotinylated LAG-3 (AcroBiosystem, Cat No. H82E5) (human) (UniProt P18627); assay: competition ELISA (RBA assay): FGL1 coated on the plate, 1 ug/ml biotinylated LAG-3 added with the antibody; blocked ligand FGL1
T1 sequence (biotinylated, looked up): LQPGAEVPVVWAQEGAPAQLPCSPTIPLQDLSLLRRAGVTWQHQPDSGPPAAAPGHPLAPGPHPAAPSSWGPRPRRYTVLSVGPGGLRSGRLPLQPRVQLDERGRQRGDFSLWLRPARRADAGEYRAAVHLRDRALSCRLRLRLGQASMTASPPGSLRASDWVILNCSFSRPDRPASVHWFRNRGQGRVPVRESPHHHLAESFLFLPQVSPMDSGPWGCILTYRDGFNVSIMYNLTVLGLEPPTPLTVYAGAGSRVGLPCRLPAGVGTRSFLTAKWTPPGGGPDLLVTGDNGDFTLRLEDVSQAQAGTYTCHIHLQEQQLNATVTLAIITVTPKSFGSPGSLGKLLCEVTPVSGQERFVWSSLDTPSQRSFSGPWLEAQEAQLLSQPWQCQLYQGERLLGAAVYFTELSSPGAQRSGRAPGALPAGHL

[2] = biological target: human LAG-3 expressed on cells (human) (UniProt P18627); assay: flow cytometry, biotinylated antibody + FITC-streptavidin, CD3 T cells; panel 'PBMC stimulation for 72h, Lag3 antibody treated group' (cells pre-treated with unlabelled HumAb747V-67)
[3] = biological target: human LAG-3 expressed on cells (human) (UniProt P18627); assay: flow cytometry, biotinylated antibody + FITC-streptavidin, CD3 T cells; panel 'PBMC stimulation for 72h, untreated group' (anti-CD3 plus anti-CD28)
[4] = biological target: human LAG-3 expressed on cells (human) (UniProt P18627); assay: flow cytometry, biotinylated antibody + FITC-streptavidin, CD3 T cells; panel 'PBMC stimulation for 72h, PD1 antibody treated group' (cells pre-treated with unlabelled HumAb713-7)

Measured: binding

B1: HumAb747V-67 (antibody, human IgG1, V domains shown)
VH: EVQLVQSGAEVKKPGATVKLSCTASGFNIKDDYMHWVKQRPEQGLDWIGWIVPENGNTVYASKFQGKATITADTSTNTAYLELSSLRSEDTAVYYCTVYGDYWGQGTTVTVSS
VL: DIQMTQSPSSLSASVGDRVTITCRASQEISGYLSWLQQKPGGAIKRLIYAASALDSGVPSRFSGSRSGSDYTLTISSLQPEDFADYYCLQYASYPLTFGQGTKLELK
binds: all assays above
